Patent US20220135656A1
Numbering of substitutions follows the chain as printed. Results are given in words; binding and its absence hold for the method and conditions named. Some results given as binding are weak or reduced against the parent protein; the word gives no strength.

Sequences of proteins named here, by UniProt entry; tags and fusion partners are left off. A change or cut given only in a name is not applied to a line headed by its entry.
UniProt P02769: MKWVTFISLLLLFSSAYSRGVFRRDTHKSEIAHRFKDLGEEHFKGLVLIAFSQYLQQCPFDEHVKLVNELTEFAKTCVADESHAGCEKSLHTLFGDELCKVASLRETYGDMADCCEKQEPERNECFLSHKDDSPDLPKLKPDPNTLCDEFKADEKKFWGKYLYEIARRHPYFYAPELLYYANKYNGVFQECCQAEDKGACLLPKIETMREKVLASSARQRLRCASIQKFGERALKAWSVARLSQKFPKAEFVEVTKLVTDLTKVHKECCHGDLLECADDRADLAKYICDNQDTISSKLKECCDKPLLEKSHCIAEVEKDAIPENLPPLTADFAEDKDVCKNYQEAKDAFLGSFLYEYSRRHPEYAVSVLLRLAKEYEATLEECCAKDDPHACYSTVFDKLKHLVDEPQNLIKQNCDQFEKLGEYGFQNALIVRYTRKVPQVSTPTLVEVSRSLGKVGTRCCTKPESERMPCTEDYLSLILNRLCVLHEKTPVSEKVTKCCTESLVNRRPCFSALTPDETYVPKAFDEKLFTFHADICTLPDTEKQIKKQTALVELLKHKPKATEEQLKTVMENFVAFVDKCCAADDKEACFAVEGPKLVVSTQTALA

B1: 14G11 monoclonal antibody (antibody, IgG1, V domains shown)
VH: QIQLVQSGPEMKKPGETVKIFCKASGYTLTDYSMHWVKQAPGKGLKWMGWINTETGEPTYADDFKGRCAFSLETSVSTAFLQINNLKNEDMGTYFCASSGAWFSYWGQGTLVTVSA
VL: DVLLTQTPLSLPVSLGDQASISCRSSQTIVQINGNTHLEWFLQKPGQSPKLLIYKVSNRFSGVPDRFSGSGSGTDFTLKISRVEAEDLGIYYCFQGSHVPFTFGSGTKLEIK
B2: 13F6 monoclonal antibody (antibody, IgG2b, V domains shown)
VH: QIQLVQSGPELKKPGETVKISCKASGYTFTDYSMHWVRQAPGKGLKWMGWINTETGEPTYADDFKGRFAFSLETSASTAYLQINNLKNEDTATHFCAPSVAWFAYWGQGTLVTVST
VL: B1 VL with L4M, P12S, T28S, I32S, I90V

Columns and labels:
[1] = molecular target: 6SEN 33-Mer peptide BSA-conjugated (wheat) (UniProt P02769); experiment: Western blot, 2 µg loaded, non-reducing (N) and reducing (R) buffer, primary Ab 0.5 µg/ml, IRDye 800CW goat anti mouse IgG 0.1 µg/ml [blot 14G11 Ab]
[2] = molecular target: 6SEN 33-Mer peptide BSA-conjugated (wheat) (UniProt P02769); experiment: ELISA / Western blot, antigen coated at 10 µg/ml (Table 3)
[3] = molecular target: 6SEN 33-Mer peptide BSA-conjugated (wheat) (UniProt P02769); experiment: Western blot, 2 µg loaded, non-reducing (N) and reducing (R) buffer, primary Ab 0.5 µg/ml, IRDye 800CW goat anti mouse IgG 0.1 µg/ml [blot 13F6 Ab]

Binder | binding [1] | binding [2] | binding [3]
B1 | binds | binds | –
B2 | – | binds | binds
